# Laboratory results reported in PubChem BioAssay AID1487 (National Center for Advancing Translational Sciences (NCATS), 2009).
# This is one part of the list. The main result of the screen is listed elsewhere. These columns were measured beside it and carry no call. Most of these compounds were active or inconclusive in the main read-out, so they are no random draw. The note in brackets gives the kind of curve behind each potency; many fits are weak.
# Test: qHTS Assay for Modulators of Lamin A Splicing
# Settings: HeLa LMNA splicing GFP/RFP minigene ratio, 48 h
# Summary of the method: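 S3 HeLa cells stably expressing lamin A-EGFP splicing minigene plus DsRed2, 600 cells/well, 48 h compound exposure at 37C. Laser-scanning cytometry; analysed as GFP (500-530 nm)/RFP (575-640 nm) total intensity ratio; 0.5% DMSO vehicle.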
# [1] = measured here: GFP splicing reporter channel
# [2] = measured here: RFP viability control channel
smiles,measurement,setting,value
CCc1ccc(-n2nc(C)c3c(C)cc(=O)n(CC(=O)Nc4cc(Cl)ccc4OC)c32)cc1,AC50,[1],"2.82 µM [falling, partial curve, poor fit]"
same,AC50,[2],"2.51 µM [falling, partial curve, poor fit]"
O=C(Nc1ccc(Cl)cn1)C1CCCN1S(=O)(=O)c1ccc(Cl)cc1 (centres undefined),AC50,[2],"17.8 µM [rising, single point]"
CCN(CC)c1ccc(NC(=S)NC(=O)c2ccco2)cc1,AC50,[1],"0.0251 µM [falling, full curve, poor fit]"
same,AC50,[2],"0.0224 µM [falling, full curve]"
Cn1c(=O)c2c(nc(N3CCCCCC3)n2Cc2cccc3ccccc23)n(C)c1=O,AC50,[1],"12.6 µM [rising, partial curve]"
same,AC50,[2],"17.8 µM [rising, partial curve]"
COC(=O)c1c(NC(=O)/C=C/C(=O)O)sc(C)c1-c1ccc(C(C)C)cc1,AC50,[2],"35.5 µM [falling, single point]"
CC(=O)Nc1cccc(NC(=O)CSc2nnnn2Cc2ccccc2)c1,AC50,[1],"15.8 µM [rising, partial curve, poor fit]"
same,AC50,[2],"14.1 µM [rising, partial curve]"
O=C(NCCSCc1ccccc1)c1ccccc1,AC50,[1],"8.91 µM [rising, partial curve]"
same,AC50,[2],"22.4 µM [rising, single point]"
Cc1cc(C)c(C(=O)Cn2nc(C)c([N+](=O)[O-])c2C)cc1C,AC50,[2],"31.6 µM [rising, partial curve, poor fit]"
COc1cc(CNc2ccccc2SC)cc(OC)c1OC,AC50,[1],"14.1 µM [rising, single point]"
same,AC50,[2],"17.8 µM [rising, single point]"
O=C(CN1CCc2ccccc21)NC(c1ccccc1)c1ccccc1,AC50,[1],"11.2 µM [falling, partial curve, poor fit]"
COc1ccc(OC)c(CN2CCC(CO)(CCOc3ccccc3)CC2)c1,AC50,[1],"5.62 µM [rising, single point]"
CCN1CCc2c(sc(-n3cccc3)c2C(C)NC(=O)Nc2ccc(C(=O)OC)cc2)C1 (centres undefined),AC50,[1],"35.5 µM [rising, single point]"
same,AC50,[2],"17.8 µM [rising, single point]"
Oc1ccc(N2CCN(c3nnnn3-c3ccccc3)CC2)cc1,AC50,[1],"6.31 µM [falling, partial curve, poor fit]"
O=C(Nc1cccc(F)c1)c1cnc2sc(N3CCCC3)nn2c1=O,AC50,[1],"5.62 µM [falling, partial curve, poor fit]"
same,AC50,[2],"0.398 µM [falling, full curve, poor fit]"
COC(=O)c1c(C)oc2ccc(N(C(=O)c3ccncc3)S(=O)(=O)c3ccc(Br)cc3)cc12,AC50,[1],"35.5 µM [falling, single point]"
same,AC50,[2],"17.8 µM [falling, single point]"
S=C(c1cn(CCOc2cccc3ccccc23)c2ccccc12)N1CCCC1,AC50,[1],"7.08 µM [rising, partial curve, poor fit]"
same,AC50,[2],"22.4 µM [rising, partial curve]"
CC(C)(C)n1nnnc1C(c1ccccc1F)N(Cc1ccco1)CC1CCCO1 (centres undefined),AC50,[1],"11.2 µM [rising, partial curve]"
CCC(C)(C)n1nnnc1C(c1ccncc1)N1CCN(c2cccc(OC)c2)CC1 (centres undefined),AC50,[2],"35.5 µM [rising, single point]"
COC(=O)Nc1nc2ccc(SC(C)C)cc2[nH]1,AC50,[1],"2 µM [falling, full curve]"
same,AC50,[2],"1.58 µM [falling, full curve, poor fit]"
Cc1ccc2cc(CN(Cc3ccco3)C(=S)NCC3CCCO3)c(=O)[nH]c2c1C (centres undefined),AC50,[2],"14.1 µM [rising, single point]"
CCOC(=O)Cc1n[nH]c(=O)c2ccccc12,AC50,[1],"2.82 µM [rising, full curve]"
Fc1cccc(CN2CCc3nc(Nc4ccc5c(c4)OCCO5)ncc3C2)c1F,AC50,[1],"2.82 µM [falling, partial curve, poor fit]"
COc1ccc(-c2csc3ncnc(Nc4ccccc4)c23)cc1,AC50,[2],"3.98 µM [rising, partial curve]"
Cc1ccc(CSC2=NC(C)(C)Nc3ccccc32)c(C)c1,AC50,[1],"35.5 µM [falling, partial curve, poor fit]"
same,AC50,[2],"35.5 µM [falling, partial curve, poor fit]"
Cc1cc(Sc2nc(N(C)C)nc(N(C)C)n2)nc(Cl)n1,AC50,[1],"0.0398 µM [rising, full curve, poor fit]"
CCOC(=O)c1c(S(=O)(=O)N2CCCC(C(=O)Nc3cccc(CC)c3)C2)c(C)n(CC)c1C (centres undefined),AC50,[1],"0.891 µM [falling, full curve, poor fit]"
same,AC50,[2],"1.26 µM [falling, partial curve, poor fit]"

# In a second layout: results already given
smiles	measurement	setting	value
Cc1cc(Sc2nc(N(C)C)nc(N(C)C)n2)nc(Cl)n1	AC50	[1]	0.0398 µM [rising, full curve, poor fit]
CCOC(=O)c1c(S(=O)(=O)N2CCCC(C(=O)Nc3cccc(CC)c3)C2)c(C)n(CC)c1C (centres undefined)	AC50	[1]	0.891 µM [falling, full curve, poor fit]
